Data on four substances can be found in patent US10238713B2 (LODZ UNIVERSITY OF TECHNOLOGY, priority 2010, dated 2019).

Non-standard residues stand in square brackets, D forms with d. *: point of attachment. β3hF = N[C@H](CC(=O)O)Cc1ccccc1; tBu = CC(C)(C)*

This series is described as follows: general procedure: Fmoc solid-phase peptide synthesis; Wang resin; 2-Cl-trityl resin; HBTU or TBTU / DIPEA; cyclisation with PyBOP/HOAt/2,4,6-collidine.
[1] abbreviates: whole synthesis, 214 nm, scale of the general procedure 0.2 mmol.

Turning to “cyclo([dP][dP][β3hF]F) (SMILES O=C1C[C@H](Cc2ccccc2)NC(=O)[C@H]2CCCN2C(=O)[C@H]2CCCN2C(=O)[C@H](Cc2ccccc2)N1)”, under setting [1], the “final HPLC purity” value was 97.44%.
As to “cyclo(PP[β3hF]W) (SMILES O=C1C[C@H](Cc2ccccc2)NC(=O)[C@@H]2CCCN2C(=O)[C@@H]2CCCN2C(=O)[C@H](Cc2c[nH]c3ccccc23)N1)”, under setting [1], the “final HPLC purity” value came to 99.47%.
cyclo(PP[β3hF]F): under “cyclisation step, HPLC (Vydac C18, 214 nm)”, the “final HPLC purity” value is on record as 99%. In addition, the cyclisation yield (cyclisation step, on linear precursor) amounted to 27%.
As for “cyclo(PP[β3hF]Y(tBu)) (SMILES CC(C)(C)Oc1ccc(C[C@@H]2NC(=O)C[C@H](Cc3ccccc3)NC(=O)[C@@H]3CCCN3C(=O)[C@@H]3CCCN3C2=O)cc1)”, under setting [1], the “final HPLC purity” value turned out to be 98.43%.
